We go through two substances from article PMC12711160 (Chemmedchem, 2025).

A short description of this series: general procedure: Fmoc solid-phase peptide synthesis; NovaSyn TGR R resin (Merck); DIC/OxymaPure (automated); HOBt/DIC (manual). As to conditions: whole synthesis, RP-HPLC, linear gradient 20-70% eluent B in A over 40 min, scale of the general procedure 15 µmol.

Regarding “APLEPVYPGDNATPEQMAQYAADLRRYINMLTRPRY-NH2”, the “final HPLC purity” value is greater than 95%.
Regarding [K4(Diamine-4-OHT),F7,P34]-pNPY, the “final HPLC purity” value was greater than 88%.
